PMC8988195
These are yes or no findings as the source states them, for the method shown.

The chains behind the UniProt entries cited, without tags or fusion partners. Where a name states a change or a piece, a line headed by the entry shows the natural chain unless it says otherwise. Residues count along the entry.
UniProt P02769, residues 25-607: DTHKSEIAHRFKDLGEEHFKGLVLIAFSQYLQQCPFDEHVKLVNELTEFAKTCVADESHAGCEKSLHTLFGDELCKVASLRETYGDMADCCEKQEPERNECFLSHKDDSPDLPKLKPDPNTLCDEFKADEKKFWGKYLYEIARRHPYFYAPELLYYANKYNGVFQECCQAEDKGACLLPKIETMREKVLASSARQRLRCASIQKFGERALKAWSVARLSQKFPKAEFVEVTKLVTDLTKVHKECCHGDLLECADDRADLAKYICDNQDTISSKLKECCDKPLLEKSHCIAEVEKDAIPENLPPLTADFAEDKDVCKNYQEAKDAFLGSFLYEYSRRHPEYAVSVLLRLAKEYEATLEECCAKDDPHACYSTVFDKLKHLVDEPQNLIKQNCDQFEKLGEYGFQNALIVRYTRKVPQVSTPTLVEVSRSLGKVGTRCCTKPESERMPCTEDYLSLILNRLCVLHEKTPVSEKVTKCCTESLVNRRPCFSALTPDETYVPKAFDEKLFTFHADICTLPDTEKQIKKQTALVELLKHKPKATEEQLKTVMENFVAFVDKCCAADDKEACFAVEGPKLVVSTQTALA
UniProt P04003: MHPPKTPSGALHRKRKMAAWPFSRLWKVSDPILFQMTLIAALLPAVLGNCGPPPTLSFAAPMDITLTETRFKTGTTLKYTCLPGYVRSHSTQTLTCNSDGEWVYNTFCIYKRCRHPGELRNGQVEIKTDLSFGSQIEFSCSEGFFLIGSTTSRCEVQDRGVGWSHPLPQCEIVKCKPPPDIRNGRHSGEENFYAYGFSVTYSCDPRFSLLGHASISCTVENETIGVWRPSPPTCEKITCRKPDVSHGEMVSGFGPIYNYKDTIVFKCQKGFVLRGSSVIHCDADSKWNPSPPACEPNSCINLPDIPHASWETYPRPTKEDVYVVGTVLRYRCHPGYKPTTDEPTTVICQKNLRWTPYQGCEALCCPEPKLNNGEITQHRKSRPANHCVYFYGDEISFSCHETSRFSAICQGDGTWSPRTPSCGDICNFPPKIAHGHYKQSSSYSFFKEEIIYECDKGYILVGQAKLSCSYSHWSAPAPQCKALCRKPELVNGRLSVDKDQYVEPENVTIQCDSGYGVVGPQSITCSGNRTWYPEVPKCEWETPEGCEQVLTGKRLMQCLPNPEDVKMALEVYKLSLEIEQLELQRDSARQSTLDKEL

Target: bovine serum albumin (bovine) (UniProt P02769)
Assay: ELISA; plates coated with recombinant proteins (1 μg/ml) or BSA; blocked with PBS/2% BSA; normal human serum (0–100% in PBS) for 90 min at 37°C; detected with anti-FH, anti-C4BP or anti-PLG and HRP conjugate, read at 450 nm; only the target purified

**Q.** “C4 Binding Protein (from UniProt P04003 49-597; P20851 18-252) (complex)” was tested. Which binding did it give?
**A.** no binding
